Data as given in PubChem BioAssay AID1259254 (NCATS, 2017)
Purpose: 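Genome-wide screen for genes that prevent DNA re-replication in cancer cells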 (primary screen). Cell system: human HCT116 colorectal cancer cells. Knock-down reagent: single siRNA against human genes. Time to read-out: 3 days. Detection: 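Nuclei stained with Hoechst and imaged; cell-cycle phase assigned by DNA content; G2 share scaled per plate, non-targeting siRNA 0%, GMNN siRNA 100%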. Direction: G2 robust z-score and G2 cells, % of GMNN control: higher = more G2 cells, more excess DNA replication. Active means: 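An siRNA counts as active if its G2 robust z-score lies at least 5 MADs above the screen median; here such calls match roughly 38% of GMNN control or more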.
The whole screen tested about 59,000 reagents; shown is an unselected part. About 1,550 of all reagents (2.6%) were called active. 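G2 share is only a proxy for re-replication; each gene was hit by three separate siRNAs, and active genes were retested.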 A number with no mark means an inactive call. The numbers tell different reagents against one gene apart. Not all columns of the deposit are shown. Not given: the amount of reagent.

target gene | reagent no. | G2 robust z-score | G2 cells, % of GMNN control
RC3H2 (ring finger and CCCH-type domains 2) | 1 | -1.38 | -6.72
RC3H2 (ring finger and CCCH-type domains 2) | 2 | 2.63 | 21.4
RC3H2 (ring finger and CCCH-type domains 2) | 3 | 3.4 | 26.9
ANKRD10 (ankyrin repeat domain 10) | 1 | 0.667 | 7.66
ANKRD10 (ankyrin repeat domain 10) | 2 | 0.465 | 6.24
ANKRD10 (ankyrin repeat domain 10) | 3 | -0.58 | -1.11
ZNF350 (zinc finger protein 350) | 1 | 0.309 | 5.14
ZNF350 (zinc finger protein 350) | 2 | -0.614 | -1.35
ZNF350 (zinc finger protein 350) | 3 | 0.32 | 5.22
TERF2 (telomeric repeat binding factor 2) | 1 | -0.517 | -0.67
TERF2 (telomeric repeat binding factor 2) | 2 | 2.2 | 18.4
TERF2 (telomeric repeat binding factor 2) | 3 | 1.52 | 13.7
GPAM (glycerol-3-phosphate acyltransferase, mitochondrial) | 1 | 4.29 | 33.1
GPAM (glycerol-3-phosphate acyltransferase, mitochondrial) | 2 | -0.494 | -0.51
GPAM (glycerol-3-phosphate acyltransferase, mitochondrial) | 3 | 2.47 | 20.4
OR51T1 (olfactory receptor family 51 subfamily T member 1) | 1 | -0.845 | -2.98
OR51T1 (olfactory receptor family 51 subfamily T member 1) | 2 | 0.319 | 5.21
OR51T1 (olfactory receptor family 51 subfamily T member 1) | 3 | 0.436 | 6.03
PTRH1 (peptidyl-tRNA hydrolase 1 homolog) | 1 | 1.3 | 12.1
PTRH1 (peptidyl-tRNA hydrolase 1 homolog) | 2 | -0.839 | -2.94
PTRH1 (peptidyl-tRNA hydrolase 1 homolog) | 3 | 0.181 | 4.24
TMEM8B (transmembrane protein 8B) | 1 | -0.79 | -2.59
TMEM8B (transmembrane protein 8B) | 2 | 1.48 | 13.4
TMEM8B (transmembrane protein 8B) | 3 | -0.00647 | 2.92
CTSD (cathepsin D) | 1 | 0.416 | 5.9
CTSD (cathepsin D) | 2 | 0.853 | 8.97
CTSD (cathepsin D) | 3 | -0.879 | -3.22
ERN2 (endoplasmic reticulum to nucleus signaling 2) | 1 | 0.209 | 4.44
ERN2 (endoplasmic reticulum to nucleus signaling 2) | 2 | 0.334 | 5.32
ERN2 (endoplasmic reticulum to nucleus signaling 2) | 3 | -0.202 | 1.55
TNFSF12 (TNF superfamily member 12) | 1 | -1.32 | -6.34
TNFSF12 (TNF superfamily member 12) | 2 | -0.121 | 2.11
TNFSF12 (TNF superfamily member 12) | 3 | 2.42 | 20
TSR2 (TSR2 ribosome maturation factor) | 1 | -0.679 | -1.81
TSR2 (TSR2 ribosome maturation factor) | 2 | 1.13 | 10.9
TSR2 (TSR2 ribosome maturation factor) | 3 | -1.08 | -4.61
SZT2 (SZT2 subunit of KICSTOR complex) | 1 | -0.191 | 1.63
SZT2 (SZT2 subunit of KICSTOR complex) | 2 | -0.691 | -1.89
SZT2 (SZT2 subunit of KICSTOR complex) | 3 | -0.929 | -3.57
SZT2 (SZT2 subunit of KICSTOR complex) | 4 | 4.08 | 31.6
SZT2 (SZT2 subunit of KICSTOR complex) | 5 | 0.117 | 3.79
SZT2 (SZT2 subunit of KICSTOR complex) | 6 | 0.984 | 9.89
DCAF6 (DDB1 and CUL4 associated factor 6) | 1 | -1.04 | -4.34
DCAF6 (DDB1 and CUL4 associated factor 6) | 2 | -0.534 | -0.791
DCAF6 (DDB1 and CUL4 associated factor 6) | 3 | 0.753 | 8.27
CD83 (CD83 molecule) | 1 | 0.522 | 6.64
CD83 (CD83 molecule) | 2 | 5.67 (active) | 42.9
CD83 (CD83 molecule) | 3 | 5.26 (active) | 40

Active calls, of those listed so far:
target gene | reagent no. | G2 robust z-score | G2 cells, % of GMNN control
CD83 (CD83 molecule) | 2 | 5.67 (active) | 42.9
CD83 (CD83 molecule) | 3 | 5.26 (active) | 40
